According to the supplement of paper PMC10849652:
The other results are listed elsewhere or left out.

Amino acid sequences for entries named in this document (tags omitted). A change or cut given only in a name is not applied to a line headed by its entry.
UniProt Q15393: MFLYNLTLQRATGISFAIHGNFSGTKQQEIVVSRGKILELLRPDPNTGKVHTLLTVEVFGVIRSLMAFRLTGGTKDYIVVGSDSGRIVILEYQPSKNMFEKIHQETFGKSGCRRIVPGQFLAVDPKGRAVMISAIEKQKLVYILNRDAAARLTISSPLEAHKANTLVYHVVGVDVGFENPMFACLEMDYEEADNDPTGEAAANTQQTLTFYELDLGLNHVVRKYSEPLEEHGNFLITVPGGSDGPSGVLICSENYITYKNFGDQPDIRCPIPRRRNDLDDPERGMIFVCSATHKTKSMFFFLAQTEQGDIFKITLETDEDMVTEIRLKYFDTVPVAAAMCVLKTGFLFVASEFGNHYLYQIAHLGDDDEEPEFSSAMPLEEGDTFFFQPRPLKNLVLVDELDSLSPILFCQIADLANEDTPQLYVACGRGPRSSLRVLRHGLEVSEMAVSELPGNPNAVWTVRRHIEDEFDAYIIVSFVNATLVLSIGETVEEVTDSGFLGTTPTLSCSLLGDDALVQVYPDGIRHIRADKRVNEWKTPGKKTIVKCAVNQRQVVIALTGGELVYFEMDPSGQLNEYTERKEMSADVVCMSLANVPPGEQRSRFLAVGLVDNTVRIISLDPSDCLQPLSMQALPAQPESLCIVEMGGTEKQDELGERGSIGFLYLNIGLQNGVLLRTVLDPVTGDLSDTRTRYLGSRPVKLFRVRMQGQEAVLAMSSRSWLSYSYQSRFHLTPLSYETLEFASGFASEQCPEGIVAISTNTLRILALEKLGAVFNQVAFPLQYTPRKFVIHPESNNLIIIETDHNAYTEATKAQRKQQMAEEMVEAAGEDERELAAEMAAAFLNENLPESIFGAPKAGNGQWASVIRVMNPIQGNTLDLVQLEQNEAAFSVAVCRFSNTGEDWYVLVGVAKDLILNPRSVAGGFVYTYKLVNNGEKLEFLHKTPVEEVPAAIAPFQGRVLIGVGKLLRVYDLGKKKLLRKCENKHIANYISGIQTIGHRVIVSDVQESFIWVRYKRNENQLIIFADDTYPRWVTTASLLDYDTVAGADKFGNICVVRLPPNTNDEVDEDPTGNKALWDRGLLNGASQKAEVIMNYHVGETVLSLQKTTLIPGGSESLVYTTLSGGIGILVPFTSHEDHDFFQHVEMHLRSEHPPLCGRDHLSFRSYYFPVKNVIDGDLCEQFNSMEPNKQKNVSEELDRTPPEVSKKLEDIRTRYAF
UniProt Q562F6: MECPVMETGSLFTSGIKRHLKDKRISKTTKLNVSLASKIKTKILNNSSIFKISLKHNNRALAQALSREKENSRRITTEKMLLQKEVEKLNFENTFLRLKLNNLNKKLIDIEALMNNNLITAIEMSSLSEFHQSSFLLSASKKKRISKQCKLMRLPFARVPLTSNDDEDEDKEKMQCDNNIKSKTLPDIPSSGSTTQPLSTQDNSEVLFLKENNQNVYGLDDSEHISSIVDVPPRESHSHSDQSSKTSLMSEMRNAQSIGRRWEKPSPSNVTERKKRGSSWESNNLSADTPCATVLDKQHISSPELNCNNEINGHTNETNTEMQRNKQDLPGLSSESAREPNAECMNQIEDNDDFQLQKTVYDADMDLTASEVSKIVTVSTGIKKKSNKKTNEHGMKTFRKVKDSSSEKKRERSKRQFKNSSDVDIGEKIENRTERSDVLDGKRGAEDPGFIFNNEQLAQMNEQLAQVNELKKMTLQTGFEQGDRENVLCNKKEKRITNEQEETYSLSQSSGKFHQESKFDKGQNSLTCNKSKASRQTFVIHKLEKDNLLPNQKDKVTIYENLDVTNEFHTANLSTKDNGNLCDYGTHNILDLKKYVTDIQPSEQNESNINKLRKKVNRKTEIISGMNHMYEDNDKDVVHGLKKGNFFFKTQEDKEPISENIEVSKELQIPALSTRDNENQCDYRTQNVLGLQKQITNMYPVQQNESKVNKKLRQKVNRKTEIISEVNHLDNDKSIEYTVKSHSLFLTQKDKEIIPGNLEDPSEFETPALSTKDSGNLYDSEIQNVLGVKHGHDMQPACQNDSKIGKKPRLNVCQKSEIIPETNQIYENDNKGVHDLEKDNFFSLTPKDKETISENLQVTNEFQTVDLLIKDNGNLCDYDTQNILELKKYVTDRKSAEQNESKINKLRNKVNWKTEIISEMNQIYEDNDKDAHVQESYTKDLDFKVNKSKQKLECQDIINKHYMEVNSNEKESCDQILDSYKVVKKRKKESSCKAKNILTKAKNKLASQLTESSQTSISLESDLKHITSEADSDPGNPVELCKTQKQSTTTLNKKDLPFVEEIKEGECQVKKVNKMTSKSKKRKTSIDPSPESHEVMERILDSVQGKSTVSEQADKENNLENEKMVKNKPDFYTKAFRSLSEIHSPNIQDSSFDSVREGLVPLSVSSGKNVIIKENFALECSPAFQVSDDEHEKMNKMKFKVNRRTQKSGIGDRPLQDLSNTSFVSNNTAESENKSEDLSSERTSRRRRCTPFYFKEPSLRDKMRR
UniProt Q6P4A7: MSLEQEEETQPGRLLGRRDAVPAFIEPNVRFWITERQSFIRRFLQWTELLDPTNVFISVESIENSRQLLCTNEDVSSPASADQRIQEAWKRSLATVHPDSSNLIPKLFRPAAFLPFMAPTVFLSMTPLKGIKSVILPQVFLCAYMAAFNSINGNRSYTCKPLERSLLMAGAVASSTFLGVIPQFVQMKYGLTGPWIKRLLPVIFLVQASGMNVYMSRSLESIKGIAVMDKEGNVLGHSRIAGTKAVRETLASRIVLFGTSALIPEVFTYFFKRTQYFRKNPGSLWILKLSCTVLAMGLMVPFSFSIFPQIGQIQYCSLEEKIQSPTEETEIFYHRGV
UniProt Q6PI26: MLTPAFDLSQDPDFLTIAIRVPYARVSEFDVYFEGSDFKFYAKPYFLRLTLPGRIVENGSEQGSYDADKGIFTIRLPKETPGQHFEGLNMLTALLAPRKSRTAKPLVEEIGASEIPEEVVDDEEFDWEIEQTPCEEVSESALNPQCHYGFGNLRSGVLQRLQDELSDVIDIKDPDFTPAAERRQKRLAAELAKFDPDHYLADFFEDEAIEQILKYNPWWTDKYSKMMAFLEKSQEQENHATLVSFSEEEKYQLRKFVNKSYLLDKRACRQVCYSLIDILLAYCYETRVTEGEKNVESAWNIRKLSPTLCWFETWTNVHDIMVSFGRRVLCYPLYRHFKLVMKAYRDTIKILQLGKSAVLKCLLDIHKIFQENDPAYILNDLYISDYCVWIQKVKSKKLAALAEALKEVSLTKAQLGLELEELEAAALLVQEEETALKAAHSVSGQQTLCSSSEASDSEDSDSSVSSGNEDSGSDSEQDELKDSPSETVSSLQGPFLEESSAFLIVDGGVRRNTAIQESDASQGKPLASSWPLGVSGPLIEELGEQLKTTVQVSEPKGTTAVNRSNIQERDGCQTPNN
UniProt Q8N697: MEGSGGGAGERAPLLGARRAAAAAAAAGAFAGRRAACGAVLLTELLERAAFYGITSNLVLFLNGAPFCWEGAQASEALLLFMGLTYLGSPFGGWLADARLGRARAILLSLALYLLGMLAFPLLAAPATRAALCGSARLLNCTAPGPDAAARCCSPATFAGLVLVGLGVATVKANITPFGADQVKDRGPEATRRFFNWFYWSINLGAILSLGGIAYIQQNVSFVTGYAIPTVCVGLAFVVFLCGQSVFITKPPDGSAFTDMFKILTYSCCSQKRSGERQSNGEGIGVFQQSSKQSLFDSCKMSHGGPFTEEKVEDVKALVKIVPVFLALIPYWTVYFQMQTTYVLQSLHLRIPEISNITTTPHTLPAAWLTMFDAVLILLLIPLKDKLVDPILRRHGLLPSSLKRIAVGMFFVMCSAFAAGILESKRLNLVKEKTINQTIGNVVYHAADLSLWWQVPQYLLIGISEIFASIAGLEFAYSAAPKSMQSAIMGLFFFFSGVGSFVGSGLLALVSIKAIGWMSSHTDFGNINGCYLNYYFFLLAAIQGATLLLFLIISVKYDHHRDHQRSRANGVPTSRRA
UniProt O43166: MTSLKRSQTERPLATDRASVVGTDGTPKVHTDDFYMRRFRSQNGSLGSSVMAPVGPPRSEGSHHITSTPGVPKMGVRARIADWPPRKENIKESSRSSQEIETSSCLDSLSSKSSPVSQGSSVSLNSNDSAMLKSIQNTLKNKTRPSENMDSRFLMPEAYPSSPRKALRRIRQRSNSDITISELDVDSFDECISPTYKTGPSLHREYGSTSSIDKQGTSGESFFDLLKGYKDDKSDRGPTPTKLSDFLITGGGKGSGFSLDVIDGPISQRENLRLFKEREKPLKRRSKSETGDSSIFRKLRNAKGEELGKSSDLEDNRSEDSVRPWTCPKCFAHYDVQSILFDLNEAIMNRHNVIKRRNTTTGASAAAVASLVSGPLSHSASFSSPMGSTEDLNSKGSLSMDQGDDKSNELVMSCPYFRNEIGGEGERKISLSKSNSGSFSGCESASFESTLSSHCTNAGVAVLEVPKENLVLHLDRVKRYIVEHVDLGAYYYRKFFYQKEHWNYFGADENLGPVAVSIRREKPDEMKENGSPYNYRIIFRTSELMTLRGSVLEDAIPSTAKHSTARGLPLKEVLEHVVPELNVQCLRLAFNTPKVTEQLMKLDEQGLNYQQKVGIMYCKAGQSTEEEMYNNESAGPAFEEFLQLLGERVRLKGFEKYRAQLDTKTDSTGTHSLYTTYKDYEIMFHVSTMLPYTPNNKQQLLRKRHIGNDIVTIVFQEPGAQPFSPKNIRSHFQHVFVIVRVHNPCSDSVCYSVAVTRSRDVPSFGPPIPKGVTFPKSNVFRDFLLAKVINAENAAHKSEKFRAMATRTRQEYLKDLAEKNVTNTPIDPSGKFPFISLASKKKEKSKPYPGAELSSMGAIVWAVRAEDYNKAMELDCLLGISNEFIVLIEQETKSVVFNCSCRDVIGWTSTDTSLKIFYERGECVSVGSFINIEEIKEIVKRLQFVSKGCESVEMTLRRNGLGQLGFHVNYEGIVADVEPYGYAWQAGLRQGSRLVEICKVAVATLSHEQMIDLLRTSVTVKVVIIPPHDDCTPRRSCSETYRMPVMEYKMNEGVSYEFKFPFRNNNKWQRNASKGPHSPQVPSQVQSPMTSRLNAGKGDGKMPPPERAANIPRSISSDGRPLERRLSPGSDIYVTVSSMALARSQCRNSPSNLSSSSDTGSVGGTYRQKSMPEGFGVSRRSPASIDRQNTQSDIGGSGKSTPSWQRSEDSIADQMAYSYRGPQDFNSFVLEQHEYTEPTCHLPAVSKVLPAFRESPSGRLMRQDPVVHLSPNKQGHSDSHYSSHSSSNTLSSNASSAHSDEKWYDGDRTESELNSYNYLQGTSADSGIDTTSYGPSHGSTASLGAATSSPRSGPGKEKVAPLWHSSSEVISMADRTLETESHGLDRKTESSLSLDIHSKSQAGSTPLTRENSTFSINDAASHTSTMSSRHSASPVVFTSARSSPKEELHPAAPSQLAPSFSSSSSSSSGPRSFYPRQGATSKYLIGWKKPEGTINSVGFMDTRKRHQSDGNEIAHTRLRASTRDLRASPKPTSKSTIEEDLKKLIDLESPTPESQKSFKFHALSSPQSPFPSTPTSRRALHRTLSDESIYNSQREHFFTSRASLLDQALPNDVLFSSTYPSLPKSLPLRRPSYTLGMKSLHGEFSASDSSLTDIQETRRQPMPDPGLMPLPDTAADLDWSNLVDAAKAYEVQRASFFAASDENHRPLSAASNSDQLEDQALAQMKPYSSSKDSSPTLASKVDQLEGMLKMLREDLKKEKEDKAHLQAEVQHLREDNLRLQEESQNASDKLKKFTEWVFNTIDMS
UniProt P50454: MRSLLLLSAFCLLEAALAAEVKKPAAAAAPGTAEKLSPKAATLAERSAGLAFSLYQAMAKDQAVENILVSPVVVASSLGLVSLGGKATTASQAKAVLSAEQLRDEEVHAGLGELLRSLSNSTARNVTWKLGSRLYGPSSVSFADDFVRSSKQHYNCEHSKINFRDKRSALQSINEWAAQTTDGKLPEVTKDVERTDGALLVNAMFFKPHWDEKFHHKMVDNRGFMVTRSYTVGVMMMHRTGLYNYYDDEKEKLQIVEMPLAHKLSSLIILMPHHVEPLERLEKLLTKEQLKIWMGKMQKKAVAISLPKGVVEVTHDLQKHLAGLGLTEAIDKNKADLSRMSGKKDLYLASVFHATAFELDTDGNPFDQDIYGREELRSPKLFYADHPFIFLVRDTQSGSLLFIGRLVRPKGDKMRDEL
UniProt Q99963: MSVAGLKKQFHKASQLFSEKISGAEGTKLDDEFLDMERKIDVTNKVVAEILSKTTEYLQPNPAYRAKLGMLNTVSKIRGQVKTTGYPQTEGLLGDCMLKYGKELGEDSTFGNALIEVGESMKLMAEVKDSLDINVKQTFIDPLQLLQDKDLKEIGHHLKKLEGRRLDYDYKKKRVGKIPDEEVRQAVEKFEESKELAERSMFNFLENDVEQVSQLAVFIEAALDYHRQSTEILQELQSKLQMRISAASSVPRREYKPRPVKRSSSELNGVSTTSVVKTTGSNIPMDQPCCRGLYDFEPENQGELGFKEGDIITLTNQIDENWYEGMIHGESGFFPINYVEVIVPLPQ

Tests used:
Assay in all cases: log2 fold change, soluble protein after heating vs DMSO (PISA); higher = thermal stabilisation; K562 lysate, 10 uM; active = over 0.2 and 3.5 SD of the protein, either way, in both replicates (recomputed)
ibrutinib = compound: C=CC(=O)N1CCC[C@@H](n2nc(-c3ccc(Oc4ccccc4)cc3)c3c(N)ncnc32)C1 [ibrutinib]
Summary of the method: (§1)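 Thermal stability, expressed as log-two fold change relative to solvent controls, is given from duplicates. Crude K562 extract in PBS pH 7.4 with 1 mM MgCl2, at 1 mg/mL protein, was treated with 10 μM compound for 30 min and heated in aliquots for 3 min across 48°C-58°C. After pooling, adjustment to 0.5% NP-40 at 4°C and centrifugation at 21,000xg for 90 min, supernatant protein was measured by TMTpro 16plex LC-MS/MS with channel sums equalised.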

[1] = compound: CC(=O)c1cnc2ccc(-c3cc(Cl)c(O)c(Cl)c3)nc2c1N[C@H]1CC[C@H](CN(C)C)CC1
Summary of the method: as §1

ralimetinib = compound: CC(C)(C)Cn1c(N)nc2ccc(-c3[nH]c(C(C)(C)C)nc3-c3ccc(F)cc3)nc21 [ralimetinib]
Summary of the method: as §1

[2] = compound: CC(C)(O)CC(=O)NCCn1ccc2ncnc(Nc3ccc(Oc4cccc(C(F)(F)F)c4)c(Cl)c3)c21
Summary of the method: as §1

[3] = compound: CC(C)C1=C2N=C(C=C(N2N=C1)NCC3=CC=CC=C3)NCCCCCCN
Summary of the method: as §1

[4] = compound: CC1=C(C(CC(=O)N1)C2=CC=C(C=C2)C(F)(F)F)C(=O)NC3=C(C=C4C(=C3)C=NN4)F
Summary of the method: as §1

[5] = compound: CC1=C(C2=C(C=C1)C(=O)C3=CC=CC=C3N2CCCN)C
Summary of the method: as §1

[6] = compound: CC1=C(C=C(C=C1)NC(=O)C2=CC(=CC=C2)C(C)(C)C#N)NC3=CC4=C(C=C3)N=CN(C4=O)C
Summary of the method: as §1

[7] = compound: CC1=C(C=C(C=C1)NC(=O)C2=CC(=CC=C2)N(C)C)NC(=O)C3=CC=C(C=C3)O
Summary of the method: as §1

[8] = compound: CC1=CC=C(C=C1)SC2=C3C=C(SC3=CN=C2)C(=O)N
Summary of the method: as §1

Measured: log2 fold change

SF1 isoform 5 (UniProt Q15637)
inactive: ibrutinib 0.015 | [1] 0.003 | ralimetinib -0.014 | [2] 0 | [3] -0.015 | [4] -0.003 | [5] 0.016 | [6] -0.014 | [7] -0.029 | [8] -0.029

SLC20A2 (UniProt Q08357)
inactive: ibrutinib 0.107 | [1] 0.014 | ralimetinib 0.013 | [2] -0.016 | [4] 0.227 | [5] 0.016 | [6] -0.039 | [7] -0.027 | [8] 0.024

SHROOM1 (UniProt Q2M3G4)
inactive: ibrutinib -0.039 | [1] 0.043 | ralimetinib -0.022 | [2] -0.095 | [3] -0.053 | [4] -0.012 | [5] 0.025 | [6] -0.047 | [7] 0.052 | [8] -0.103

SESN1 isoform 2 (UniProt Q9Y6P5)
inactive: ibrutinib -0.08 | [1] -0.093 | [3] -0.022 | [6] 0.024 | [8] -0.142

SIAE (UniProt Q9HAT2)
inactive: ibrutinib 0.029 | ralimetinib -0.094 | [2] -0.488 | [6] -0.097 | [7] 0.186

SF3B3 (UniProt Q15393)
inactive: ibrutinib 0 | [1] 0.007 | ralimetinib 0.001 | [2] -0.024 | [3] -0.011 | [4] 0.003 | [5] -0.023 | [6] 0.041 | [7] -0.011 | [8] 0.001

SFXN2 (UniProt Q96NB2)
inactive: ibrutinib -0.012 | [1] 0.021 | ralimetinib 0.001 | [2] -0.018 | [3] -0.07 | [4] 0.099 | [5] -0.042 | [6] 0.018 | [7] 0.05 | [8] 0.029

SHKBP1 (UniProt Q8TBC3)
inactive: ibrutinib 0.064 | [1] -0.02 | ralimetinib 0.063 | [2] 0.006 | [3] 0.067 | [4] -0.005 | [5] -0.051 | [6] 0.038 | [7] 0.052 | [8] 0.004

SGO2 (UniProt Q562F6)
inactive: ibrutinib -0.03 | ralimetinib 0 | [2] -0.237 | [6] 0.039 | [7] -0.026

SH3BGRL3 (UniProt Q9H299)
inactive: ibrutinib 0.059 | [1] -0.026 | ralimetinib -0.013 | [2] -0.032 | [3] 0.005 | [4] -0.013 | [5] 0.003 | [6] 0.02 | [7] -0.041 | [8] 0.022

SIX4 (UniProt Q9UIU6)
inactive: ibrutinib 0.096 | [1] -0.067 | ralimetinib 0.104 | [2] -0.029 | [3] 0.029 | [4] 0.098 | [7] 0.113 | [8] -0.179

SFXN4 isoform 3 (UniProt Q6P4A7)
inactive: ibrutinib 0.144 | ralimetinib -0.069 | [2] -0.151 | [3] 0.013 | [4] -0.339 | [6] -0.046 | [7] -0.084

SHQ1 (UniProt Q6PI26)
inactive: ibrutinib 0.021 | ralimetinib -0.107 | [2] 0.086 | [3] -0.03 | [4] 0.034 | [5] -0.044 | [6] -0.008 | [7] 0.086

SLC12A2 (UniProt P55011)
inactive: ibrutinib 0.009 | [1] 0.024 | ralimetinib 0.029 | [2] -0.09 | [3] -0.015 | [4] 0.029 | [5] 0.031 | [6] 0.001 | [7] 0.012 | [8] -0.005

SH2D3A (UniProt Q9BRG2)
inactive: ibrutinib -0.004 | ralimetinib -0.043 | [2] -0.102 | [4] 0.139 | [7] 0.007

SLC15A4 (UniProt Q8N697)
inactive: ibrutinib 0.044 | [1] 0.024 | [3] 0.088 | [5] -0.072 | [6] -0.021 | [8] -0.027

SH3KBP1 (UniProt Q96B97)
inactive: ibrutinib 0.349 | [1] -0.016 | ralimetinib 0.035 | [2] -0.184 | [3] 0.037 | [5] 0.048 | [6] 0.046 | [7] -0.013 | [8] 0.097

SH3BP2 isoform 4 (UniProt P78314)
inactive: ibrutinib 0.096 | [1] -0.084 | ralimetinib 0.07 | [2] 0.137 | [3] -0.004 | [5] -0.297 | [6] 0.03 | [7] -0.126 | [8] 0.073

SLC19A2 (UniProt O60779)
inactive: ibrutinib 0.062 | [1] 0.088 | [4] -0.003 | [5] -0.009 | [8] -0.088

SIPA1L1 (UniProt O43166)
inactive: ibrutinib -0.009 | [1] -0.098 | ralimetinib -0.001 | [2] -0.017 | [3] 0.047 | [4] -0.053 | [6] 0.208 | [7] 0.009 | [8] -0.054

SIRT1 (UniProt Q96EB6)
inactive: ibrutinib 0.009 | [1] 0.009 | ralimetinib 0.007 | [2] -0.011 | [3] 0.011 | [4] -0.018 | [5] 0.003 | [6] -0.011 | [7] -0.006 | [8] 0.013

SIAH2 (UniProt O43255)
inactive: ibrutinib 0.02 | [1] 0.039 | [3] 0.007 | [4] 0.07 | [8] 0.031

SF3B2 (UniProt E9PJ04)
inactive: ibrutinib 0.052 | [1] 0.026 | [3] 0.045 | [4] -0.098 | [8] -0.093

SIPA1 (UniProt Q96FS4)
inactive: ibrutinib 0.006 | [1] -0.015 | ralimetinib -0.014 | [2] -0.019 | [3] 0.046 | [4] -0.003 | [5] -0.047 | [6] -0.011 | [7] -0.055 | [8] 0.015

SF3A1 (UniProt Q15459)
inactive: ibrutinib 0.006 | [1] -0.006 | ralimetinib -0.015 | [2] -0.019 | [3] 0.015 | [4] 0.012 | [5] 0.005 | [6] 0.01 | [7] -0.011 | [8] -0.001

SLC20A1 (UniProt Q8WUM9)
inactive: ibrutinib 0.022 | [1] -0.028 | ralimetinib -0.013 | [2] -0.08 | [3] 0.05 | [4] 0.072 | [5] -0.015 | [6] 0.027 | [7] 0.002 | [8] -0.054

SFXN4 (UniProt Q6P4A7)
inactive: ibrutinib 0.046 | [1] 0.027 | ralimetinib 0.044 | [2] -0.031 | [3] -0.003 | [4] -0.027 | [5] -0.06 | [6] 0.025 | [7] 0.021 | [8] 0.075

SLC17A5 (UniProt Q9NRA2)
inactive: ibrutinib 0.176 | [1] 0.081 | ralimetinib -0.054 | [2] -0.073 | [3] 0.07 | [4] -0.056 | [5] 0.019 | [7] 0.021 | [8] -0.07

SERPINH1 (UniProt P50454)
inactive: ibrutinib -0.003 | [1] -0.012 | ralimetinib -0.024 | [2] -0.028 | [3] 0 | [4] -0.022 | [5] 0.004 | [6] -0.004 | [7] -0.006 | [8] -0.004

Taken from the results shown (2 entries):
SF3A1 (UniProt Q15459)
inactive: ibrutinib 0.006 | [1] -0.006 | ralimetinib -0.015 | [2] -0.019 | [3] 0.015 | [4] 0.012 | [5] 0.005 | [6] 0.01 | [7] -0.011 | [8] -0.001

SLC20A1 (UniProt Q8WUM9)
inactive: ibrutinib 0.022 | [1] -0.028 | ralimetinib -0.013 | [2] -0.08 | [3] 0.05 | [4] 0.072 | [5] -0.015 | [6] 0.027 | [7] 0.002 | [8] -0.054

Continued:

SIN3A (UniProt Q96ST3)
inactive: ibrutinib 0.016 | [1] -0.004 | ralimetinib 0.007 | [2] -0.017 | [3] 0.015 | [4] -0.04 | [5] -0.021 | [6] -0.001 | [7] 0 | [8] 0.015

SH3GL3 isoform 3 (UniProt Q99963)
inactive: ibrutinib 0.042 | [1] -0.104 | ralimetinib -0.014 | [2] 0.004 | [3] 0.001 | [4] -0.017 | [5] -0.045 | [6] 0.027 | [7] 0.042 | [8] -0.102
